Measured values from patent US8603987 (GALAXY BIOTECH, dated 2013).
Results are given in words; binding and its absence hold for the method and conditions named. Some results given as binding are weak or reduced against the parent protein; the word gives no strength. Values belong to the binder of their own block, whether it stands above or below them.

Protein sequences, listed by entry. Tags and fused reporters are not part of them. Lines headed by an entry give the natural chain unless they say otherwise; changes in a name come on top. Chains listed by the source or under a name are the forms on record and can include a tag or linker.
Mouse FGFR2(beta)IIIb-Fc protein (R&D Systems Catalog #708-MF) (P21803, form named): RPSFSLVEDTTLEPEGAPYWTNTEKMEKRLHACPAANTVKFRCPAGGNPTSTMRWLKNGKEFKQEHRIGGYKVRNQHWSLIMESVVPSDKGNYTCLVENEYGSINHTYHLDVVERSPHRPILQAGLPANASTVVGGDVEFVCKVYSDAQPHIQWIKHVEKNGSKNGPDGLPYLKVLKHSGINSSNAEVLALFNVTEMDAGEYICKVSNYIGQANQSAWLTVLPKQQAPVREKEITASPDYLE

Biological target: Mouse FGFR2(beta)IIIb-Fc protein (R&D Systems Catalog #708-MF) (mouse) (UniProt P21803)
Assay: ELISA, FGFR2IIIb-Fc captured by anti-human IgG-Fc

- binding: binds
B1: GAL-FR21 (antibody, V domains shown)
VH: QVQLQQPGAEVVKPGASVKMSCKASGYIFTTYNVHWVKQTPGQGLEWIGSIYPDNGDTSYNQNFKGKATLTADKSSSTAYIQLSSLTSEDSAVYYCARGDFAYWGQGTLVTVSV
VL: NIVMTQSPKSMSMSVGDRVSITCKASQGVSNDVAWYQKKPGQSPKLLIYSASYRYTGVPDRFTGSGSGTDFTFTISNVQAEDLAVYYCQQHSTTPYTFGGGTKLEIK
notes: Mouse monoclonal antibody from a hybridoma; also called mouse GAL-FR21; ATCC PTA-9586

- binding: binds
B2: GAL-FR22 (antibody, V domains shown)
VH: QVQLKQSGPGLVQPSQSLSITCTVSGFSLTSFGVHWVRQSPGKGLEWLGVIWSGGSTDYNADFRSRLSISKDNSKSQIFFKMNSLQPDDTAIYYCANFYYGYDDYVMDYWGQGTSVTVSS
VL: DIQMTQSPSSLSASLGGRVTITCKASQDIKNYIAWYQHKPGKSPRLLIHYTSTLQPGVPSRFSGSGSGRDYSFSISNLEPEDIATYYCLQYDDLYMFGGGTKLDIK
notes: Mouse monoclonal antibody from a hybridoma; also called GAL-FG22; ATCC PTA-9587
